ClpP1P2: 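ClpP1P2, Mycobacterium tuberculosis (UniProt P9WPC5 and UniProt P9WPC3). Protease assay of ClpP1P2, read by the AMC dye that it sets free. Compounds at 50 µM. Higher reads as stronger inhibition, judged from the few compounds that gave an IC50. Most other retested compounds had strongly negative values. Of about 69,000 compounds tested this way, about 10 (0.015%) reached 50% or more in at least one test.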
Toxoplasma: 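Assay of Toxoplasma gondii numbers, read through their beta-galactosidase reporter with a colour substrate. Tested at 10 µM. Higher reads as fewer parasites (inferred from which compounds were picked for retests). Of about 67,000 compounds tested this way, about 260 (0.38%) reached 50% or more in at least one test.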
MtTrpRS: 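Enzyme assay of tryptophanyl-tRNA synthetase; the read-out is not stated. Target: Tryptophan-tRNA ligase, Mycobacterium tuberculosis (UniProt P9WFT3). Compounds at 10 µM. Direction is not recorded; retested compounds ran higher, which suggests that high means inhibition. About 65,000 compounds were tested under these conditions; 0.098% (about 64) showed 50% or more at least once.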
CoaBC: 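Coenzyme A biosynthesis protein CoaBC, Mycobacterium tuberculosis (UniProt P9WNZ1). Enzyme assay of CoaBC with a phosphate dye (Biomol Green) read at 650 nm. Compounds at 30 µM. Direction is inferred from only a few compounds that gave an IC50; most scored high, so higher reads as stronger inhibition. Most strong results did not repeat in a second test. Of about 67,000 compounds tested this way, about 40 (0.06%) reached 50% or more in at least one test.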

Chains of the proteins cited; added tags and fusions are not shown.
UniProt P9WPC5, whole entry: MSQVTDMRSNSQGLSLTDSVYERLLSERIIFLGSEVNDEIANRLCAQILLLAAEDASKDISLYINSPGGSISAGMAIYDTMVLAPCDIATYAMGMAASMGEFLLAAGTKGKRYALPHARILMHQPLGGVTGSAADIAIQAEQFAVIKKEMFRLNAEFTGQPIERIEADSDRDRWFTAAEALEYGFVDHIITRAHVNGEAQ
UniProt P9WPC3, whole entry partner: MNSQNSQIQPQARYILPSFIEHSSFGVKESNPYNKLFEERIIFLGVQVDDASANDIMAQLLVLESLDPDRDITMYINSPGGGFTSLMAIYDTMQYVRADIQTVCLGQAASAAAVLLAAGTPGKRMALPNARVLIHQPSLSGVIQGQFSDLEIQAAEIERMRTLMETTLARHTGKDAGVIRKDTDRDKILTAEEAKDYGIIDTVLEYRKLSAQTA
UniProt P9WFT3, whole entry: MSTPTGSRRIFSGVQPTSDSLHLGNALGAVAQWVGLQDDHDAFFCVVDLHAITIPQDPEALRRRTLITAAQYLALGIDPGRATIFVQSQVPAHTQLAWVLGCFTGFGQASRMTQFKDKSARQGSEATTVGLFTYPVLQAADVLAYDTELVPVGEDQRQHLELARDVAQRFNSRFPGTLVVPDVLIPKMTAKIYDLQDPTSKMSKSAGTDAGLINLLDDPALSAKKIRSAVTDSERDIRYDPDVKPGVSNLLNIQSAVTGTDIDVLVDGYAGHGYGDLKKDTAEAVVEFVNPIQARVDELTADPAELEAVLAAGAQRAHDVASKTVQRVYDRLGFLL
UniProt P9WNZ1, whole entry: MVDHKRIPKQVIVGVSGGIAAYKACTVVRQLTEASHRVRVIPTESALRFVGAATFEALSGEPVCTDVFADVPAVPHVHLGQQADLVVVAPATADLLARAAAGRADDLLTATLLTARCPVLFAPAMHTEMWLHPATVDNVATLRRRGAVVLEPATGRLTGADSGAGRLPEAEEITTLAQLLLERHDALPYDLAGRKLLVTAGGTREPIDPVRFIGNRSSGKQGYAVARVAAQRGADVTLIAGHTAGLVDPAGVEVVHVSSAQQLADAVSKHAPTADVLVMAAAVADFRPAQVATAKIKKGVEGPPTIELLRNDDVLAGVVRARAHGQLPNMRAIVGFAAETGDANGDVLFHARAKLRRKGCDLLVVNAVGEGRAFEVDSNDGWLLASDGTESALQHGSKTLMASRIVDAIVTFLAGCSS

Results are given as percent effect. The record does not define 0% and 100%; most values in the screen are far below 50% and negative numbers occur (in some assays of this library far below -100). Compounds were drawn at random from those tested, without regard to their results. A dash means the value is not listed here; it may have been measured.

- O=C(O)c1cc2c(nc1-c1ccsc1)CCN(C(=O)C1CC1)CC2 : ClpP1P2: -0.4235%; MtTrpRS: -1.834%
- c1ccc(N2CCC(OCC3CCCCO3)CC2)nc1 (stereo not given) : ClpP1P2: -7.462%; Toxoplasma: 17.52%; MtTrpRS: -0.2721%; CoaBC: 0.6289%
- CCCc1nc(CN2CCN(Cc3noc(CCC)n3)CC2)no1 : ClpP1P2: -0.5873%; Toxoplasma: 2.306%; MtTrpRS: 4.386%; CoaBC: 0.7833%
- [H][C@@]12CN(C(=O)c3ccoc3)C[C@]1([H])CN(c1ncccn1)C2 : Toxoplasma: 2.809%
- O=C(COc1cccc2c1CCC2=O)NCCSc1ccccc1 : ClpP1P2: 5.727%; Toxoplasma: -2.061%; MtTrpRS: -1.589%; CoaBC: 4.184%
- CC(C(=O)NCc1cn2cc(Br)ccc2n1)S(C)(=O)=O (stereo not given) : ClpP1P2: 4.114%; Toxoplasma: 1.395%; MtTrpRS: 0.2172%; CoaBC: 1.653%
- c1ccc2sc(N3CCN(c4ncnc5c4CCC5)CC3)nc2c1 : ClpP1P2: -1.775%; Toxoplasma: 1.53%; MtTrpRS: 2.58%
- Cc1ccc(S(=O)(=O)N2CCCCC(N3CCN(C)CC3)C2)cc1F (stereo not given) : ClpP1P2: -11.25%; Toxoplasma: 1.643%; MtTrpRS: 1.499%; CoaBC: -6.731%
- O=C(O)C(F)(F)F.O=C(O)C(F)(F)F.[H][C@]12CCN(C(=O)CCC)CC[C@@]1([H])S(=O)(=O)CCN2Cc1cccnc1 : Toxoplasma: -2.014%
- O=C(CCn1cncn1)NCC(c1ccco1)N1CCCCC1 (stereo not given) : ClpP1P2: -14.36%; Toxoplasma: 3.601%; MtTrpRS: 8.777%; CoaBC: -1.044%
- CCc1n[nH]c(C2CN(C(=O)c3ccsc3)CCO2)n1 (stereo not given) : ClpP1P2: 1.055%; Toxoplasma: 10.34%; MtTrpRS: -1.016%; CoaBC: 7.179%
- COc1coc(C(=O)Nc2ccncc2)cc1=O : ClpP1P2: 10.04%; Toxoplasma: 10.09%; MtTrpRS: -0.06473%; CoaBC: 2.651%
- COc1c(C)cnc(CN(C)C(=O)c2ccc(C3CCCO3)s2)c1C (stereo not given) : ClpP1P2: 2.508%; Toxoplasma: 4.11%; MtTrpRS: -2.477%
- FC(F)(F)C1CN(c2nc(-c3ccccc3)no2)CCO1 (stereo not given) : ClpP1P2: -15.84%; Toxoplasma: 1.535%; MtTrpRS: -0.2469%; CoaBC: 0.4902%
- Cc1ccc(N2CCCC(Nc3nn4cc(C)nc4s3)C2)nn1 (stereo not given) : ClpP1P2: -6.731%; Toxoplasma: -18.21%; MtTrpRS: -1.633%; CoaBC: 0.8805%
- CC(C)Nc1nc(O)cc(C2CC(=O)N(C3CCCCC3)C2)n1 (stereo not given) : ClpP1P2: -2.113%; Toxoplasma: -6.641%; MtTrpRS: -2.083%; CoaBC: 3.589%
- Cc1noc(C[C@@H]2COC[C@H]3CN(S(=O)(=O)C4CC4)C[C@@H]23)n1 : ClpP1P2: 2.698%; MtTrpRS: -5.712%; CoaBC: -0.4167%
- c1csc(N2CCCN(c3ncnc4sccc34)CC2)n1 : ClpP1P2: 7.41%; Toxoplasma: 13.24%; MtTrpRS: -0.4542%; CoaBC: 2.913%
- O=C(NCc1ccco1)[C@@]12CCO[C@@H]1CCN(CCN1CCCC1)C2 : ClpP1P2: 8.962%; MtTrpRS: -2.413%; CoaBC: 2.919%
- O=C(CCn1ccc(=O)[nH]c1=O)N1CCC(Oc2ncccc2Cl)CC1 : ClpP1P2: -2.402%; Toxoplasma: 2.445%; MtTrpRS: -0.228%; CoaBC: 4.017%
- O=c1[nH]c2ncccc2n1C1CCNCC1 : ClpP1P2: -7.998%; MtTrpRS: -7.005%; CoaBC: 0.4603%
- O=C(CN1CCCCC1)N1CCC(c2cc(=O)n3c(n2)CCCCC3)C1.O=C(O)CC(O)(CC(=O)O)C(=O)O (stereo not given) : Toxoplasma: -8.527%
- COC(=O)CCc1c(C)nn(-c2nc(C)cc(=O)[nH]2)c1C : ClpP1P2: -5.51%; Toxoplasma: 0.8869%; MtTrpRS: 3.418%; CoaBC: -0.1267%
- O=C(CSc1ccccc1)N1CCC(N2CCCCC2=O)CC1 : ClpP1P2: -10.48%; Toxoplasma: -13.43%; MtTrpRS: -1.154%; CoaBC: -5.897%
- CCn1nccc1CNc1[nH]cnc2nc(C)nc1-2 : ClpP1P2: 17.29%; Toxoplasma: 23.2%; MtTrpRS: -0.288%; CoaBC: 1.214%
- Cc1[nH]c2nc(CNc3ccccc3Cl)nn2c(=O)c1C : ClpP1P2: -10.52%; Toxoplasma: 11.86%; MtTrpRS: 1.089%; CoaBC: 4.237%
- N#Cc1ccnc(N2CCN(CC(O)c3cc(F)ccc3F)CC2)c1 (stereo not given) : ClpP1P2: -0.5664%; Toxoplasma: -3.813%; MtTrpRS: -3.416%; CoaBC: 6.509%
- CN1C(=O)COc2ccc(C(=O)Cn3cnc4ccccc4c3=O)cc21 : ClpP1P2: 13.82%; MtTrpRS: 3.859%; CoaBC: 0.6075%
- CS(=O)(=O)N1CCC[C@]2(C[C@@H](Oc3ncccc3F)CO2)C1.O=C(O)C(F)(F)F : Toxoplasma: -5.773%
- Cc1noc(C)c1CSc1nc(=O)ccn1C(C)C : ClpP1P2: -1.541%; Toxoplasma: -5.096%; MtTrpRS: -2.179%; CoaBC: -1.229%
- CCCNC(=O)Cn1c(C)nn(C(C)(C)C)c1=O : ClpP1P2: 14.36%; Toxoplasma: -6.467%; MtTrpRS: -0.7435%; CoaBC: 7.273%

For reference, 4 entries once more:

| Compound | ClpP1P2 | Toxoplasma | MtTrpRS | CoaBC |
|---|---|---|---|---|
| `CS(=O)(=O)N1CCC[C@]2(C[C@@H](Oc3ncccc3F)CO2)C1.O=C(O)C(F)(F)F` | - | -5.773% | - | - |
| `c1ccc(N2CCC(OCC3CCCCO3)CC2)nc1` (stereo not given) | -7.462% | 17.52% | -0.2721% | 0.6289% |
| `CCCNC(=O)Cn1c(C)nn(C(C)(C)C)c1=O` | 14.36% | -6.467% | -0.7435% | 7.273% |
| `O=C(O)C(F)(F)F.O=C(O)C(F)(F)F.[H][C@]12CCN(C(=O)CCC)CC[C@@]1([H])S(=O)(=O)CCN2Cc1cccnc1` | - | -2.014% | - | - |

From ChEMBL document CHEMBL3988442, “University of Dundee, Small-Polar-MMV Screening Library” (2021).